For the data set, the target named is T1, MATE1 (Homo sapiens, UniProt Q96FL8).
T1 sequence (Q96FL8 1-570): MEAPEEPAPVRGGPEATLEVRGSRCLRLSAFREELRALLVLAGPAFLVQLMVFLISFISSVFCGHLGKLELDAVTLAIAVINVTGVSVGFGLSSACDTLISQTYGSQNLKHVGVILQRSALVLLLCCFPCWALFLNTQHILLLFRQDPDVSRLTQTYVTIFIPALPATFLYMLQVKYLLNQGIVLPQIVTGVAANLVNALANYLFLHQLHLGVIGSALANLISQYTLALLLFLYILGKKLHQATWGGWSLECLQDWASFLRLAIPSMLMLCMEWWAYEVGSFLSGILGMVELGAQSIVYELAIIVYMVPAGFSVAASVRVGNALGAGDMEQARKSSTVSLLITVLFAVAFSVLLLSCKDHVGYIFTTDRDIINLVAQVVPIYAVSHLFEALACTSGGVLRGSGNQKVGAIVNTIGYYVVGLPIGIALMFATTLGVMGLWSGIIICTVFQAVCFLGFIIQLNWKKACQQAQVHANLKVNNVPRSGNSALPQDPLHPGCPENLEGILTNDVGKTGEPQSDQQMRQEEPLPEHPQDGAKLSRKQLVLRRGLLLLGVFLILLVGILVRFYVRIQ
Briefly: [14C]TEA uptake in HEK293 cells overexpressing human MATE1. Particulars: HEK293 cells overexpressing human MATE1, pH 7.4, probe [14C]TEA (tetraethylammonium), 2 µM. The method, then:
Uptake experiments in HEK293 cells overexpressing mouse (m) and human (h) OCT2 or MATE1 were performed with radiolabeled tetraethylammonium (TEA) as the model substrate, using standard methods in the presence or absence of TKIs. The cell culture and uptake conditions for cells expressing mMATE1 or hMATE1 were described previously. […] Since the inhibitory potential of various xenobiotics against OCT2 and MATE1 is dependent on preincubation with perpetrator drugs, a 15-min preincubation period with the TKIs was employed unless stated otherwise. All results were normalized to uptake values in cells transfected with an empty vector or DMSO-treated groups.
MATE1-overexpressed cells were pre-incubated with transport media containing 30 mM ammonium chloride for 20 min at 37 °C following previously published protocol (pH 7.4 for hMATE1 [17, 18, 19] and pH 8.4 for mMATE1 [20, 21]) to ensure interactions can be evaluated between outward-facing MATE1 and substrate uptake before adding inhibitors. Then, preincubation media was removed and cells were incubated with transport media (NH4Cl free) containing radiolabeled compounds. […] The uptake of TEA and metformin was measured by liquid scintillation counting, as described previously. […] After sonication, total platinum levels were determined by flameless atomic absorption spectrometry.

For the compound `COc1cc(OC)cc(N(CCNC(C)C)c2ccc3ncc(-c4cnn(C)c4)nc3c2)c1` [Erdafitinib], at 10 µM the inhibition was 97%.

What is called inhibition is how much of the control response was suppressed. A lower inhibition goes with little suppression.

These data come from paper PMC8707461, “In Vitro and In Vivo Inhibition of MATE1 by Tyrosine Kinase Inhibitors” (Pharmaceutics, 2021).
